Measurements reported in PubChem BioAssay AID1259405 (NCATS, 2018).
In all, the deposit lists about 50,000 reagents; below is a part drawn at random. In the full data, about 4,000 (8%) got an active call. 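Mouse siRNA library applied to hamster cells; one well for each siRNA.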 Reagents against one gene are numbered here.

- Test: 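Mouse-designed siRNAs used to find CHO productivity engineering targets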 (primary screen)
- Cell system: Chinese hamster CHO-K1 ovary cells with stable secreted eGFP expression
- Reagents: single siRNA against mouse genes, 0.8 pmol siRNA per well (2 µl of 400 nM stock)
- Timing: 3 days
- Read-out: 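Per-well intracellular GFP measured by laser scanning cytometry, plus viability from ATP luminescence, each relative to plate median of non-targeting control wells, in %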
- Scale: GFP, % of control: higher = more GFP per well, higher productivity; viability (ATP), % of control: higher = more viable cells (more ATP)
- Rule for the call: 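a knock-down is called active if GFP reaches 120% or more of non-targeting control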

Egr1 (early growth response 1) #1 — GFP, % of control = 73.8; viability (ATP), % of control = 72.5; outcome = inactive
Egr1 (early growth response 1) #2 — GFP, % of control = 95.5; viability (ATP), % of control = 92.7; outcome = inactive
Zfp781b (zinc finger protein 781B) #1 — GFP, % of control = 51.6; viability (ATP), % of control = 66.1; outcome = inactive
Zfp781b (zinc finger protein 781B) #2 — GFP, % of control = 46.4; viability (ATP), % of control = 51.9; outcome = inactive
Zfp781b (zinc finger protein 781B) #3 — GFP, % of control = 114; viability (ATP), % of control = 117; outcome = inactive
Or4b1 (olfactory receptor family 4 subfamily B member 1) #1 — GFP, % of control = 112; viability (ATP), % of control = 64.2; outcome = inactive
Or4b1 (olfactory receptor family 4 subfamily B member 1) #2 — GFP, % of control = 86.2; viability (ATP), % of control = 60; outcome = inactive
Or4b1 (olfactory receptor family 4 subfamily B member 1) #3 — GFP, % of control = 66.9; viability (ATP), % of control = 83.4; outcome = inactive
Nusap1 (nucleolar and spindle associated protein 1) #1 — GFP, % of control = 77.4; viability (ATP), % of control = 89.9; outcome = inactive
Nusap1 (nucleolar and spindle associated protein 1) #2 — GFP, % of control = 117; viability (ATP), % of control = 108; outcome = inactive
Nusap1 (nucleolar and spindle associated protein 1) #3 — GFP, % of control = 78; viability (ATP), % of control = 40.8; outcome = inactive
Vmn1r226 (vomeronasal 1 receptor 226) #1 — GFP, % of control = 60.3; viability (ATP), % of control = 47.1; outcome = inactive
Vmn1r226 (vomeronasal 1 receptor 226) #2 — GFP, % of control = 57.2; viability (ATP), % of control = 73.1; outcome = inactive
Vmn1r226 (vomeronasal 1 receptor 226) #3 — GFP, % of control = 79.1; viability (ATP), % of control = 57.8; outcome = inactive
Sgta #1 — GFP, % of control = 77.2; viability (ATP), % of control = 96.9; outcome = inactive
Sgta #2 — GFP, % of control = 82.8; viability (ATP), % of control = 82.6; outcome = inactive
Sf3a3 (splicing factor 3a, subunit 3) #1 — GFP, % of control = 113; viability (ATP), % of control = 103; outcome = inactive
Sf3a3 (splicing factor 3a, subunit 3) #2 — GFP, % of control = 118; viability (ATP), % of control = 85.4; outcome = inactive
Cr1l (complement C3b/C4b receptor 1 like) #1 — GFP, % of control = 82.6; viability (ATP), % of control = 44.9; outcome = inactive
Cr1l (complement C3b/C4b receptor 1 like) #2 — GFP, % of control = 76.1; viability (ATP), % of control = 70.9; outcome = inactive
Cr1l (complement C3b/C4b receptor 1 like) #3 — GFP, % of control = 75.2; viability (ATP), % of control = 90.8; outcome = inactive
Nmt1 (N-myristoyltransferase 1) #1 — GFP, % of control = 53.2; viability (ATP), % of control = 82.5; outcome = inactive
Nmt1 (N-myristoyltransferase 1) #2 — GFP, % of control = 88.8; viability (ATP), % of control = 129; outcome = inactive
Nmt1 (N-myristoyltransferase 1) #3 — GFP, % of control = 95.3; viability (ATP), % of control = 127; outcome = inactive
Mdm2 (MDM2 proto-oncogene) #1 — GFP, % of control = 110; viability (ATP), % of control = 57.6; outcome = inactive
Mdm2 (MDM2 proto-oncogene) #2 — GFP, % of control = 68.6; viability (ATP), % of control = 66.8; outcome = inactive
Mdm2 (MDM2 proto-oncogene) #3 — GFP, % of control = 57.2; viability (ATP), % of control = 85.9; outcome = inactive
Atp11c (ATPase, class VI, type 11C) #1 — GFP, % of control = 55.5; viability (ATP), % of control = 53.9; outcome = inactive
Atp11c (ATPase, class VI, type 11C) #2 — GFP, % of control = 55.4; viability (ATP), % of control = 63.1; outcome = inactive
Atp11c (ATPase, class VI, type 11C) #3 — GFP, % of control = 45.6; viability (ATP), % of control = 65.4; outcome = inactive
Ssbp1 (single-stranded DNA binding protein 1) #1 — GFP, % of control = 67.5; viability (ATP), % of control = 68.2; outcome = inactive
Ssbp1 (single-stranded DNA binding protein 1) #2 — GFP, % of control = 87.3; viability (ATP), % of control = 85; outcome = inactive
Hspe1 (heat shock protein 1 (chaperonin 10)) #1 — GFP, % of control = 76.5; viability (ATP), % of control = 69.4; outcome = inactive
Hspe1 (heat shock protein 1 (chaperonin 10)) #2 — GFP, % of control = 83.6; viability (ATP), % of control = 49.7; outcome = inactive
Hspe1 (heat shock protein 1 (chaperonin 10)) #3 — GFP, % of control = 108; viability (ATP), % of control = 110; outcome = inactive
Anxa2 (annexin A2) #1 — GFP, % of control = 102; viability (ATP), % of control = 80.2; outcome = inactive
Anxa2 (annexin A2) #2 — GFP, % of control = 82.7; viability (ATP), % of control = 60.4; outcome = inactive
Anxa2 (annexin A2) #3 — GFP, % of control = 67.5; viability (ATP), % of control = 77.3; outcome = inactive
Flywch1 (FLYWCH-type zinc finger 1) #1 — GFP, % of control = 80; viability (ATP), % of control = 77.7; outcome = inactive
Flywch1 (FLYWCH-type zinc finger 1) #2 — GFP, % of control = 117; viability (ATP), % of control = 80.6; outcome = inactive
Flywch1 (FLYWCH-type zinc finger 1) #3 — GFP, % of control = 89.6; viability (ATP), % of control = 76.3; outcome = inactive

Reformatted: results already given
Cr1l (complement C3b/C4b receptor 1 like) #3
- GFP, % of control: 75.2
- viability (ATP), % of control: 90.8
- outcome: inactive

Nmt1 (N-myristoyltransferase 1) #1
- GFP, % of control: 53.2
- viability (ATP), % of control: 82.5
- outcome: inactive

Nmt1 (N-myristoyltransferase 1) #2
- GFP, % of control: 88.8
- viability (ATP), % of control: 129
- outcome: inactive

Nmt1 (N-myristoyltransferase 1) #3
- GFP, % of control: 95.3
- viability (ATP), % of control: 127
- outcome: inactive

Mdm2 (MDM2 proto-oncogene) #1
- GFP, % of control: 110
- viability (ATP), % of control: 57.6
- outcome: inactive
